Literature values in patent publication US20220160666A1, “COMPOSITIONS FOR USE IN SURGERY” (BTG INTERNATIONAL LIMITED, priority 2004, published 2022).

System: brain field potentials (EEG power spectrum)
Settings: rats; sedative analgesics; Dimpfel et al, 1986; cited from earlier work

Compound | change of EEG power in the beta range
CN1C(=O)CN=C(c2ccccc2)c2cc(Cl)ccc21 [diazepam] | power increases in the beta range of varying degrees
CN1CC[C@]23c4c5ccc(O)c4O[C@H]2[C@@H](O)C=C[C@H]3[C@H]1C5 [morphine] | power increases in the beta range of varying degrees
